Starred links: 1 amine or outer side, 2 acyl side, 3 side chain; linkers in the order of their positions; H or OH if unused. Residues, ends and D or L forms follow the SMILES beside them. Groups on a side chain read outwards from the residue. *: point of attachment. TTDA(Palmitoyl) = CCCCCCCCCCCCCCCC(=O)NCCCOCCOCCOCCCN*; γGlu = O=C(O)[C@H](CCC(=O)[*:2])N[*:1]; Palmitoyl = CCCCCCCCCCCCCCCC(=O)*; Suc = O=C(CCC(=O)[*:2])[*:1]
Tested on: urinary metabolites
Test: NMR-based metabolomics of urine of DIO mice
Type: in vivo, C57BL/6 mice
Conditions: 2-week treatment, vs HF diet-fed saline group, in words
Method: Urine samples for NMR-based metabolomics were collected prior to the start of the interventions and at the end of the experiment. For overnight urine collection (from 5 pm to 8 am), the mice were housed in individual metabolic cages (Tecniplast, Buguggiate, Italy) without access to food. Samples were collected with the addition of NaN3 and stored at -80°C until NMR analysis.
The urine samples were thawed at room temperature and centrifuged at 13 684 x g for 5 min prior to the NMR experiments. A 200-μl aliquot of supernatant was diluted with 340 μl of H2O mixed with 60 μl of phosphate buffer (1.5 M KH2PO4 in D2O containing 2 mM NaN3 and 0.1% trimethylsilyl propionic acid (TSP), pH 7.4) and transferred to a 5-mm NMR tube. The NMR data were acquired with a 600 MHz Bruker Avance III spectrometer (Bruker BioSpin, Rheinstetten, Germany) equipped with a 5-mm TCI cryogenic probe head. All of the experiments were performed at 300 K. Automatic tuning, matching, shimming and adjusting of the 90° pulse length were performed for each sample.
As mouse urine naturally contains urinary proteins, the NMR spectra were acquired using a Carr-Purcell-Meiboom-Gill (CPMG) pulse sequence with water presaturation (Bruker pulse sequence cpmgpr1d) to eliminate the strong protein background. […] For better metabolite identification, a short J-resolved experiment with presaturation (NS = 2, SW = 16 ppm, TD = 8k, number of increments = 40, SW = 78.125 Hz in the indirect dimension, and relaxation delay = 2 s) was executed for all samples. Additional two-dimensional ^1H-^1H correlation spectroscopy (COSY) and ^1H-^13C heteronuclear multiple-quantum correlation (HMQC) experiments (Bruker pulse sequences cosygpprqf and hmqcphpr) were performed for selected samples.
The acquired data were processed using Topspin 3.2 software (Bruker BioSpin, Rheinstetten, Germany). Line broadening of 0.3 Hz was applied on free induction decays (FIDs) prior to Fourier transformation. The spectra were automatically phased, baseline corrected and referenced to the signal of TSP (0.00 ppm).
The assignment of individual metabolites was achieved by comparing the proton spectra with the spectra of pure metabolites using Chenomx NMR Suite 7.6 (Chenomx Inc., Edmonton, AB, Canada), the HMDB database and previously published metabolomic data. The identification of metabolites was supported through J-resolved and COSY experiments and, if possible, confirmed using carbon chemical shifts extracted from the HMQC spectra.
For quantitation of individual metabolites, the CPMG spectra were uniformly binned in the range of 0.10–10.00 ppm to 0.01-ppm intervals using AMIX software (Bruker BioSpin, Rheinstetten, Germany). This procedure reduced the dimensionality of the data, eliminated chemical shift variations and thus simplified the reproducible automatic quantification. Regions corresponding to water (4.60–4.90 ppm) and urea (5.60–6.00 ppm) were removed prior to analysis. As the dilutions of the original urine samples differed (due to the differences in water intake during urine collection), all of the spectra were normalized to the total spectral area (TSA). For each identified metabolite, one representative signal was chosen and then quantified as the sum of appropriate adjacent 0.01-ppm bins to cover the whole signal width. The metabolite concentration was expressed as the TSA-normalized intensity of the respective signal. For selection of an appropriate statistical method (parametric or non-parametric) the Lilliefors test of normality was performed. […] Metabolite alterations with a P < 0.05 were considered statistically significant. Statistical analysis was performed using Matlab software (“MATLAB version 8.6 (R2015b). Natick, Massachusetts: The MathWorks Inc., 2015.,” n.d.). […]

Row | Structure (SMILES) | Urinary concentration of allantoin | Urinary concentration of creatinine | Urinary concentration of dimethylamine | Urinary concentration of phenylacetylglycine (PAG) | Urinary glucose level | Urinary level of 1-methylnicotinamide (MNA) | Urinary level of N-methyl-2-pyridone-5-carboxamide (2-PY) | Urinary level of N-methyl-4-pyridone-3-carboxamide (4-PY) | Urinary signals at 0.85-0.91 ppm (hexanoylglycine and SCFA derivatives) | Urinary taurine concentration
1 | CCCCCCCCCCCCCCCC(=O)N[C@@H](CCC(=O)NCCCC[C@H](NC(=O)[C@@H](NC(=O)[C@H](CCC(=O)O)NC(=O)[C@H](CCSC)NC(=O)[C@H](CO)NC(=O)[C@H](Cc1c[nH]cn1)NC(=O)[C@H](CCCNC(=N)N)NC(=O)[C@H](Cc1c[nH]cn1)NC(=O)[C@@H](NC(=O)[C@H](CCCNC(=N)N)NC(=O)[C@@H](N)CO)[C@@H](C)O)[C@@H](C)CC)C(=O)N[C@H](C(=O)N1CCC[C@H]1C(=O)N[C@@H](CC(=O)O)C(=O)N[C@H](C(=O)N[C@@H](CC(N)=O)C(=O)N1CCC[C@H]1C(=O)N[C@@H](C)C(=O)N[C@@H](Cc1c[nH]c2ccccc12)C(=O)N[C@@H](Cc1ccc(O)cc1)C(=O)N[C@@H](C)C(=O)N[C@@H](CO)C(=O)N[C@@H](CCCNC(=N)N)C(=O)NCC(=O)N[C@H](C(=O)N[C@@H](CCCNC(=N)N)C(=O)N1CCC[C@H]1C(=O)N[C@H](C(=O)NCC(=O)N[C@@H](CCCNC(=N)N)C(=O)N[C@@H](Cc1ccccc1)C(N)=O)C(C)C)[C@@H](C)CC)[C@@H](C)CC)[C@@H](C)O)C(=O)O [analog 1] (H-SRTHRHSMEIK([γGlu-Palmitoyl])TPDINPAWYASRGIRPVGRF-NH2; N-terminus assumed) | no impact | significant increase | no impact | no impact | significant reduction | attenuated | attenuated | attenuated | increase was significant | significantly attenuated
2 | CCCCCCCCCCCCCCCC(=O)NCCCOCCOCCOCCCNC(=O)CCC(=O)NCCCC[C@H](NC(=O)[C@@H](NC(=O)[C@H](CCC(=O)O)NC(=O)[C@H](CCSC)NC(=O)[C@H](CO)NC(=O)[C@H](Cc1c[nH]cn1)NC(=O)[C@H](CCCNC(=N)N)NC(=O)[C@H](Cc1c[nH]cn1)NC(=O)[C@@H](NC(=O)[C@H](CCCNC(=N)N)NC(=O)[C@@H](N)CO)[C@@H](C)O)[C@@H](C)CC)C(=O)N[C@H](C(=O)N1CCC[C@H]1C(=O)N[C@@H](CC(=O)O)C(=O)N[C@H](C(=O)N[C@@H](CC(N)=O)C(=O)N1CCC[C@H]1C(=O)N[C@@H](C)C(=O)N[C@@H](Cc1c[nH]c2ccccc12)C(=O)N[C@@H](Cc1ccc(O)cc1)C(=O)N[C@@H](C)C(=O)N[C@@H](CO)C(=O)N[C@@H](CCCNC(=N)N)C(=O)NCC(=O)N[C@H](C(=O)N[C@@H](CCCNC(=N)N)C(=O)N1CCC[C@H]1C(=O)N[C@H](C(=O)NCC(=O)N[C@@H](CCCNC(=N)N)C(=O)N[C@@H](Cc1ccccc1)C(N)=O)C(C)C)[C@@H](C)CC)[C@@H](C)CC)[C@@H](C)O [analog 2] (H-SRTHRHSMEIK([Suc-TTDA(Palmitoyl)])TPDINPAWYASRGIRPVGRF-NH2; N-terminus assumed) | no impact |  | no impact | no impact |  | attenuated | attenuated | attenuated |  | 
3 | CCCCCCCCCCCCCCCC(=O)NCCCOCCOCCOCCCNC(=O)CCC(=O)NCCCC[C@H](NC(=O)[C@@H](NC(=O)[C@H](CCC(=O)O)NC(=O)[C@H](CCSC)NC(=O)[C@H](CO)NC(=O)[C@H](Cc1c[nH]cn1)NC(=O)[C@H](CCCNC(=N)N)NC(=O)[C@H](Cc1c[nH]cn1)NC(=O)[C@@H](NC(=O)[C@H](CCCNC(=N)N)NC(=O)[C@H](CO)NC(=O)CCC(=O)NCCCOCCOCCOCCCNC(=O)CCCCCCCCCCCCCCC)[C@@H](C)O)[C@@H](C)CC)C(=O)N[C@H](C(=O)N1CCC[C@H]1C(=O)N[C@@H](CC(=O)O)C(=O)N[C@H](C(=O)N[C@@H](CC(N)=O)C(=O)N1CCC[C@H]1C(=O)N[C@@H](C)C(=O)N[C@@H](Cc1c[nH]c2ccccc12)C(=O)N[C@@H](Cc1ccc(O)cc1)C(=O)N[C@@H](C)C(=O)N[C@@H](CO)C(=O)N[C@@H](CCCNC(=N)N)C(=O)NCC(=O)N[C@H](C(=O)N[C@@H](CCCNC(=N)N)C(=O)N1CCC[C@H]1C(=O)N[C@H](C(=O)NCC(=O)N[C@@H](CCCNC(=N)N)C(=O)N[C@@H](Cc1ccccc1)C(N)=O)C(C)C)[C@@H](C)CC)[C@@H](C)CC)[C@@H](C)O [analog 3] ({TTDA(Palmitoyl)-Suc}-SRTHRHSMEIK([Suc-TTDA(Palmitoyl)])TPDINPAWYASRGIRPVGRF-NH2) | growing concentrations |  | growing concentrations | growing concentrations | significant reduction | did not influence | did not influence | raised | increase was significant | 

Source: paper PMC5562305, “Impact of novel palmitoylated prolactin-releasing peptide analogs on metabolic changes in mice with diet-induced obesity” (PLoS ONE, 2017)
